## Library screening results

Data taken from ChEMBL document CHEMBL3988442, “University of Dundee, Small-Polar-MMV Screening Library” (2021).

Results are given as percent effect.
The controls that fix the scale are not given in the record; negative values are as filed.
The compounds are a random part of those screened.
Two or more numbers in one place are separate tests of the same structure; such repeats can differ widely.

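Viability assay of Plasmodium falciparum sporozoites; the read-out is not stated. The concentration is filed as 10 mM, unlikely as a test dose, so the dose is not known. Higher reads as lower viability (inferred: compounds with an IC50 in retests scored well above the rest). Strong results were mostly tested again. About 34,000 compounds were tested under these conditions; 0.84% (about 280) showed 50% or more at least once.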

SMILES: Cc1cc(C(=O)OCC2CCCN2C(N)=O)c(C)o1 (centres unmarked)
effect: -10.06

SMILES: O=C(O)C(F)(F)F.[H][C@]12CCC(=O)N(c3cnn(C)c3)[C@@]1([H])CCN2Cc1csc(C)n1
effect: 23.78

SMILES: Cc1cnn(CC2CCCN2C(=O)c2cc(O)nc3ccccc23)c1 (centres unmarked)
effect: 4.864

SMILES: C=C(C)CNC(C)c1ccc(S(C)(=O)=O)c(F)c1 (centres unmarked)
effect: -10.56

SMILES: Cn1c(CNc2c(F)cccc2-n2cccn2)cc(=O)n(C)c1=O
effect: -9.183

SMILES: Cl.[H][C@@]12CCCCN[C@]1([H])[C@@H](c1ccccc1)CCN2S(=O)(=O)N1CCCC1
effect: 6.586

SMILES: CC(c1nc(C2CC2)no1)N1CCN(Cc2ccc(C#N)cc2)CC1 (centres unmarked)
effect: 10.12

SMILES: COCCN(Cc1ccoc1)C(=O)c1ccccc1OC
effect: 6.356

SMILES: COc1cccc(C2=CCN(CCN3CCOC3=O)CC2)c1
effect: -8.102

SMILES: Cc1noc2ncc(C(=O)N3CCCC3c3ccncc3)cc12 (centres unmarked)
effect: 9.786

SMILES: Cc1ccc(CN(C)Cc2nc3c(cnn3C)c(=O)[nH]2)o1
effect: 13.31

SMILES: O=C(O)C(F)(F)F.[H][C@@]12COC[C@H](NS(C)(=O)=O)[C@]1([H])CN(Cc1ccc(C)o1)C2
effect: 14.18

SMILES: c1ccc(-c2noc(CNC3CCc4ncnn4C3)n2)nc1 (centres unmarked)
effect: 4.906 and 9.976 and 10.78

SMILES: COc1ccc(NC(=O)CNc2ccc(Br)cc2F)cc1
effect: -11.84

SMILES: CCc1nnsc1C(=O)N1CCCC(n2ccnc2C(C)C)C1 (centres unmarked)
effect: -7.63

SMILES: COC1CCN(C(=O)Cc2csc(-c3ncccn3)n2)CC1
effect: -11.05

SMILES: CN(C)C(=O)c1cccc(NC(=O)CN2CCCCC2C2OCCO2)c1 (centres unmarked)
effect: -3.842

SMILES: COc1c(C)cnc(CSc2nnc(C)s2)c1C
effect: 13.73

SMILES: O=C(NS(=O)(=O)Cc1ccc(F)cc1)C1CCc2ccccc21 (centres unmarked)
effect: -8.703

SMILES: [H][C@@]12CO[C@@H](CNC(=O)c3nccn3C)[C@]1([H])CCN(S(C)(=O)=O)C2
effect: 4.174

SMILES: CCCc1noc(C(C)N2CCN(c3ccc(C#N)cn3)CC2)n1 (centres unmarked)
effect: 23.72

SMILES: Cn1cc(CN2CCCC23CCN(C(=O)c2ccncc2)CC3)cn1.O=C(O)C(F)(F)F
effect: -11.44

SMILES: CC(C)c1nnc(NCc2cc3n(n2)CCN(C2CCCCC2)C3)s1
effect: -2.932 and 34.06 and -7.075

SMILES: CCc1nnc2n1CCN(Cc1ncc(-c3ccc(F)cc3)o1)C2
effect: -2.35

SMILES: Cn1cc(C(=O)N2CCCC(c3cnccn3)C2)cn1 (centres unmarked)
effect: 7.928

SMILES: CC(C)NC(=O)c1ccc2c(c1)C1(CCN(C)CC1)C(=O)N2.O=C(O)C(F)(F)F
effect: 2.193

SMILES: CCN(Cc1ccc2c(c1)OCO2)C(=O)NC(C)Cn1cccn1 (centres unmarked)
effect: 8.34

SMILES: CCOc1ccc(NC(=O)N(C)Cc2cnn(C)c2)c(C)c1
effect: 1.481

SMILES: CN(CCc1ccccn1)C(=O)CCC1CCCN(c2cnccn2)C1 (centres unmarked)
effect: -21.41

SMILES: O=C(O)C(F)(F)F.O=C(O)C(F)(F)F.[H][C@@]12CCN(Cc3ccncc3)C[C@@]1([H])O[C@@H](C(=O)NC)C2
effect: 1.18

SMILES: O=C(c1ccccc1)N1Cc2nccn2CC(Cn2ncccc2=O)C1 (centres unmarked)
effect: 14.5

SMILES: Cc1nnc(N2CCCC(CS(N)(=O)=O)C2)c(C#N)c1C (centres unmarked)
effect: -301

SMILES: CNS(=O)(=O)CC(=O)N1CCC(c2cc3ccccc3[nH]2)CC1
effect: -7.526

SMILES: O=C(O)C(F)(F)F.[H][C@@]12CN(Cc3ccncc3)CC[C@]1([H])CN(c1cnccn1)C2
effect: -13.16

SMILES: Cc1cc(NC(=O)CN2CCn3c(nnc3C3CC3)C2)n(C)n1
effect: -12.37

SMILES: O=C(NC1CCCC1)c1cc2c(s1)CCN2C(=O)c1ccccc1
effect: -3.879

SMILES: Cc1nnsc1C(=O)N1CCCC(n2nnc3cc(F)ccc32)C1 (centres unmarked)
effect: 14.07

SMILES: NC(=O)c1cccc(C2CCN(c3ncccn3)CC2)n1
effect: 3.517

SMILES: COCCc1noc(CNC2CCCC(C)(C)C2)n1 (centres unmarked)
effect: -19.85

SMILES: CN([C@@H]1CC[C@@H](N2CCCC2)[C@@H]1O)S(=O)(=O)c1ccccc1
effect: 6.481

SMILES: CCC(=O)NCC(=O)NCC(C)(C)c1cccc(Br)c1
effect: -16.54

SMILES: Cc1nc(C2CCCN2C(=O)Cc2ccc3c(c2)OCO3)nc(O)c1C (centres unmarked)
effect: 6.835

Some entries from above, unchanged:

CN(C)C(=O)c1cccc(NC(=O)CN2CCCCC2C2OCCO2)c1 (centres unmarked) gave -3.842%.
CCN(Cc1ccc2c(c1)OCO2)C(=O)NC(C)Cn1cccn1 (centres unmarked) gave 8.34%.
O=C(NS(=O)(=O)Cc1ccc(F)cc1)C1CCc2ccccc21 (centres unmarked) gave -8.703%.
Cc1ccc(CN(C)Cc2nc3c(cnn3C)c(=O)[nH]2)o1 gave 13.31%.
COCCc1noc(CNC2CCCC(C)(C)C2)n1 (centres unmarked) gave -19.85%.